In article PMC9765456:
Results are given in words; binding and its absence hold for the method and conditions named. Binding seen in cells or lysates may run through a third protein. Some entries that bind do so weakly or less than the wild type. For some assays here: Tags and fused reporters may be left off the sequences shown.

Chains of the proteins cited; added tags and fusions are not shown. Lines headed by an entry give the natural chain unless they say otherwise; changes in a name come on top.
UniProt P03129: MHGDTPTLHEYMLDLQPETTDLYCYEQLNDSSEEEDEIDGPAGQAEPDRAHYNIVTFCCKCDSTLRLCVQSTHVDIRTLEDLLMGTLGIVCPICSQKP
UniProt P84092: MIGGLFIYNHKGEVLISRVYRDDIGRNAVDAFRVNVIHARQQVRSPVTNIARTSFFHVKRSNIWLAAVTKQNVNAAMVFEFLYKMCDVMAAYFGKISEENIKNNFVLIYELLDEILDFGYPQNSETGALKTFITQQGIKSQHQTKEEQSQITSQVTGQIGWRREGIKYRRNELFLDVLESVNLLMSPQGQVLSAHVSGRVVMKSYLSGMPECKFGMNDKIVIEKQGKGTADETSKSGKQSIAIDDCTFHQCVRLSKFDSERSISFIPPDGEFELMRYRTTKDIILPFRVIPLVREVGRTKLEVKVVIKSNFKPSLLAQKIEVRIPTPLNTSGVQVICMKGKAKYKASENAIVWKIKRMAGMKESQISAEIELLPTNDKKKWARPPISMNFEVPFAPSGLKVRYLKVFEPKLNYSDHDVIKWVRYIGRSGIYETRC
UniProt Q96CW1: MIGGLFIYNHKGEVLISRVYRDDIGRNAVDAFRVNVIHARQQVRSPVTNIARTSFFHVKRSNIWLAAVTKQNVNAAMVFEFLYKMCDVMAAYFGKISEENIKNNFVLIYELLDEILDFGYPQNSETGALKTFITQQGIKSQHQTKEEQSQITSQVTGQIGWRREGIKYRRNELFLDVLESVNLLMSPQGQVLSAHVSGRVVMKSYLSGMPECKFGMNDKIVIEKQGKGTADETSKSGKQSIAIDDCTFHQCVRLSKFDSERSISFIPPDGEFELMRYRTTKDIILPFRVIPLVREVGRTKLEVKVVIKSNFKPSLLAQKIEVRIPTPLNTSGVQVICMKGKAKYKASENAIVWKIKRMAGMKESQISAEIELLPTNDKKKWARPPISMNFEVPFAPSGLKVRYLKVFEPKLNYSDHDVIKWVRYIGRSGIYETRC
UniProt P63010: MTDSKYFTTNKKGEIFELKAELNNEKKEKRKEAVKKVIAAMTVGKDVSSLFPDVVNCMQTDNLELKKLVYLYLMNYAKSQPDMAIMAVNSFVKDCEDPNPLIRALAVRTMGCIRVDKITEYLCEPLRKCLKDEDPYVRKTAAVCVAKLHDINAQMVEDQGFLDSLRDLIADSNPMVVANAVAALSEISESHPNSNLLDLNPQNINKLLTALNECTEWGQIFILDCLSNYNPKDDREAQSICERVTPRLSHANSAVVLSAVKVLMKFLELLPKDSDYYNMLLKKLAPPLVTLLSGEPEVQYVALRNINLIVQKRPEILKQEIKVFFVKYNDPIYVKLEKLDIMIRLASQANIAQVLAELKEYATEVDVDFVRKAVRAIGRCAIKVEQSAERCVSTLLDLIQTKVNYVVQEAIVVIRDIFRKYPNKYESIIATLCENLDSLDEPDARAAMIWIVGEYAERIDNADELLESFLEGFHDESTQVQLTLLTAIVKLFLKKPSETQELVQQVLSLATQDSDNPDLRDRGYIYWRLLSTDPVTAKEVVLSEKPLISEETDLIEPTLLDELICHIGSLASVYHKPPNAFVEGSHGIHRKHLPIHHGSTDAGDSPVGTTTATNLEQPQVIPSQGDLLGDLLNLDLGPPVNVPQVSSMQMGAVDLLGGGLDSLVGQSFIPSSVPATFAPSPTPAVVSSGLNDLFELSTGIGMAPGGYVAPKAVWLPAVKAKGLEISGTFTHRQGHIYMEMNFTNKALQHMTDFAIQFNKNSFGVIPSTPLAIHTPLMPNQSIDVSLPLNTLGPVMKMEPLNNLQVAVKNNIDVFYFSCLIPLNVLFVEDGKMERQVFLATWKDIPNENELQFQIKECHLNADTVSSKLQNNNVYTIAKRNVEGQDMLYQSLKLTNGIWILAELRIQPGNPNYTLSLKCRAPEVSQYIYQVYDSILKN

Tests used:
[1] = target: GST-16 E7 (HPV-16 E7 GST fusion protein) (human papillomavirus type 16) (UniProt P03129); assay: pull-down; only the target purified
[2] = target: GST-phospho-16 E7 (human papillomavirus type 16) (UniProt P03129); assay: pull-down; only the target purified
[3] = target: HA-tagged AP2-μ2 wild type (UniProt P84092); assay: co-IP
[4] = target: AP2-μ2 (endogenous) (human (endogenous in SiHa, CaSki, NIKS, HaCaT)) (UniProt Q96CW1); assay: co-IP
[5] = target: AP2-β2-μ2 hemicomplex (H6β2-trunk + μ2-myc) (UniProt P63010); assay: pull-down; only the target purified
[6] = target: C-terminally FLAG/HA-tagged HPV-16 E7 wild type (human papillomavirus type 16) (UniProt P03129); assay: co-IP
[7] = target: T1, C-terminally FLAG/HA-tagged HPV-11 E7 (human papillomavirus type 11) (UniProt P04020); assay: co-IP
T1 sequence: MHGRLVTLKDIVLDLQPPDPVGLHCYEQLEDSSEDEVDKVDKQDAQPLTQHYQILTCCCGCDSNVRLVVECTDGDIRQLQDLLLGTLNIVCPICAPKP

[8] = target: C-terminally FLAG-tagged HPV-16 E7 (human papillomavirus type 16) (UniProt P03129); assay: co-IP

In the case of “AP2-μ2 (endogenous) (from UniProt Q96CW1 1-435)”, the binding [1] is reported as “binds” and the binding [2] is reported as “binds”.

With “C-terminally FLAG-tagged HPV-16 E7 (from UniProt P03129 1-98)” the binding [3] was “binds”.

“C-terminally FLAG/HA-tagged HPV-16 E7 wild type (from UniProt P03129 1-98)” was tested, and the binding [4] was “binds” and the binding [5] was “binds”.

With “HA-tagged AP2-μ2 K308E/K312E (from UniProt P84092 1-435)” the binding [6] was “binds”.

For “HA-tagged AP2-μ2 wild type (from UniProt P84092 1-435)”, the binding [7] was “binds” and the binding [6] was “binds”.

For “HPV-16 E7 (endogenously expressed in SiHa and CaSki cells) (from UniProt P03129 1-98)”, the binding [4] was “binds”.

With “in vitro translated, [35S]-radiolabelled AP2-μ2 (μ2-HA-WT) (from UniProt P84092 1-435)” the binding [1] was “binds”.

B1: HA-tagged pRb (protein, UniProt P06400 1-928)
chain: MPPKTPRKTAATAAAAAAEPPAPPPPPPPEEDPEQDSGPEDLPLVRLEFEETEEPDFTALCQKLKIPDHVRERAWLTWEKVSSVDGVLGGYIQKKKELWGICIFIAAVDLDEMSFTFTELQKNIEISVHKFFNLLKEIDTSTKVDNAMSRLLKKYDVLFALFSKLERTCELIYLTQPSSSISTEINSALVLKVSWITFLLAKGEVLQMEDDLVISFQLMLCVLDYFIKLSPPMLLKEPYKTAVIPINGSPRTPRRGQNRSARIAKQLENDTRIIEVLCKEHECNIDEVKNVYFKNFIPFMNSLGLVTSNGLPEVENLSKRYEEIYLKNKDLDARLFLDHDKTLQTDSIDSFETQRTPRKSNLDEEVNVIPPHTPVRTVMNTIQQLMMILNSASDQPSENLISYFNNCTVNPKESILKRVKDIGYIFKEKFAKAVGQGCVEIGSQRYKLGVRLYYRVMESMLKSEEERLSIQNFSKLLNDNIFHMSLLACALEVVMATYSRSTSQNLDSGTDLSFPWILNVLNLKAFDFYKVIESFIKAEGNLTREMIKHLERCEHRIMESLAWLSDSPLFDLIKQSKDREGPTDHLESACPLNLPLQNNHTAADMYLSPVRSPKKKGSTTRVNSTANAETQATSAFQTQKPLKSTSLSLFYKKVYRLAYLRLNTLCERLLSEHPELEHIIWTLFQHTLQNEYELMRDRHLDQIMMCSMYGICKVKNIDLKFKIIVTAYKDLPHAVQETFKRVLIKEEEYDSIIVFYNSVFMQRLKTNILQYASTRPPTLSPIPHIPRSPYKFPSSPLRIPGGNIYISPLKSPYKISEGLPTPTKMTPRSRILVSIGESFGTSEKFQKINQMVCNSDRVLKRSAEGSNPPKPLKKLRFDIEGSDEADGSKHLPGESKFQQKLAEMTSTRTRMQKQKMNDSMDTSNKEEK
In the case of B1, the binding [6] is reported as “binds”.

B2: pRB (endogenous in HEK 293) (protein, UniProt P06400 1-928)
chain: MPPKTPRKTAATAAAAAAEPPAPPPPPPPEEDPEQDSGPEDLPLVRLEFEETEEPDFTALCQKLKIPDHVRERAWLTWEKVSSVDGVLGGYIQKKKELWGICIFIAAVDLDEMSFTFTELQKNIEISVHKFFNLLKEIDTSTKVDNAMSRLLKKYDVLFALFSKLERTCELIYLTQPSSSISTEINSALVLKVSWITFLLAKGEVLQMEDDLVISFQLMLCVLDYFIKLSPPMLLKEPYKTAVIPINGSPRTPRRGQNRSARIAKQLENDTRIIEVLCKEHECNIDEVKNVYFKNFIPFMNSLGLVTSNGLPEVENLSKRYEEIYLKNKDLDARLFLDHDKTLQTDSIDSFETQRTPRKSNLDEEVNVIPPHTPVRTVMNTIQQLMMILNSASDQPSENLISYFNNCTVNPKESILKRVKDIGYIFKEKFAKAVGQGCVEIGSQRYKLGVRLYYRVMESMLKSEEERLSIQNFSKLLNDNIFHMSLLACALEVVMATYSRSTSQNLDSGTDLSFPWILNVLNLKAFDFYKVIESFIKAEGNLTREMIKHLERCEHRIMESLAWLSDSPLFDLIKQSKDREGPTDHLESACPLNLPLQNNHTAADMYLSPVRSPKKKGSTTRVNSTANAETQATSAFQTQKPLKSTSLSLFYKKVYRLAYLRLNTLCERLLSEHPELEHIIWTLFQHTLQNEYELMRDRHLDQIMMCSMYGICKVKNIDLKFKIIVTAYKDLPHAVQETFKRVLIKEEEYDSIIVFYNSVFMQRLKTNILQYASTRPPTLSPIPHIPRSPYKFPSSPLRIPGGNIYISPLKSPYKISEGLPTPTKMTPRSRILVSIGESFGTSEKFQKINQMVCNSDRVLKRSAEGSNPPKPLKKLRFDIEGSDEADGSKHLPGESKFQQKLAEMTSTRTRMQKQKMNDSMDTSNKEEK
With B2 the binding [8] was “binds”.

B3: C-terminally FLAG/HA-tagged HPV-11 E7 (protein, UniProt P04020 1-98)
chain: MHGRLVTLKDIVLDLQPPDPVGLHCYEQLEDSSEDEVDKVDKQDAQPLTQHYQILTCCCGCDSNVRLVVECTDGDIRQLQDLLLGTLNIVCPICAPKP
With B3 the binding [4] was “binds”.

B4: C-terminal FLAG-tagged HPV-11 E7 (protein, UniProt P04020 1-98)
chain: MHGRLVTLKDIVLDLQPPDPVGLHCYEQLEDSSEDEVDKVDKQDAQPLTQHYQILTCCCGCDSNVRLVVECTDGDIRQLQDLLLGTLNIVCPICAPKP
B4 was tested, and the binding [3] was “binds”.
